Each structure is given as a SMILES string. Structures were worked out from names or drawings and are uncertain.

Usually IC50 stands for the concentration that inhibits the measured activity by half. By Ki is commonly meant a measure of affinity in units of concentration, obtained from inhibition or displacement.

In experiment [1] the target is thrombin generation in normal donor plasma (PPP) (Homo sapiens, UniProt P00734). In words: Thrombin generation test in plasma (endogenous thrombin potential, ETP). The conditions noted are these: ratio of IC50 for ETP reduction in plasma to Ki in buffer system; tested form: iodide.
Another experiment addresses Human thrombin (Homo sapiens, UniProt P00734). Description: Thrombin induced hydrolysis of specific substrates in buffer system. The conditions noted are these: chromogenic substrate (SCHR), tested form: iodide.

`Cc1cc(OCC[n+]2ccc(N)nc2)cc(OS(=O)(=O)c2ccccc2)c1`: the “IC50(ETP)/Ki” value in experiment [1] was determined as 49.2. Further, the IC50 on Human thrombin (read-out: Inhibition of thrombin activity (in buffer system) IC50) stood at 589 nM. For the same compound, the Ki at Human thrombin (read-out: Inhibition of thrombin activity (in buffer system) Ki, calculated assuming competitive type of inhibition) was 50.8 nM.

The values above are taken from publication PMC3095642, “New Synthetic Thrombin Inhibitors: Molecular Design and Experimental Verification” (PLoS ONE, 2011).
